Measurements from “University of Dundee, Small-Polar-MMV Screening Library” (2021), ChEMBL document CHEMBL3988442.

The chains behind the UniProt entries cited, without tags or fusion partners. Residues count along the entry.
UniProt I6X8D2, whole entry: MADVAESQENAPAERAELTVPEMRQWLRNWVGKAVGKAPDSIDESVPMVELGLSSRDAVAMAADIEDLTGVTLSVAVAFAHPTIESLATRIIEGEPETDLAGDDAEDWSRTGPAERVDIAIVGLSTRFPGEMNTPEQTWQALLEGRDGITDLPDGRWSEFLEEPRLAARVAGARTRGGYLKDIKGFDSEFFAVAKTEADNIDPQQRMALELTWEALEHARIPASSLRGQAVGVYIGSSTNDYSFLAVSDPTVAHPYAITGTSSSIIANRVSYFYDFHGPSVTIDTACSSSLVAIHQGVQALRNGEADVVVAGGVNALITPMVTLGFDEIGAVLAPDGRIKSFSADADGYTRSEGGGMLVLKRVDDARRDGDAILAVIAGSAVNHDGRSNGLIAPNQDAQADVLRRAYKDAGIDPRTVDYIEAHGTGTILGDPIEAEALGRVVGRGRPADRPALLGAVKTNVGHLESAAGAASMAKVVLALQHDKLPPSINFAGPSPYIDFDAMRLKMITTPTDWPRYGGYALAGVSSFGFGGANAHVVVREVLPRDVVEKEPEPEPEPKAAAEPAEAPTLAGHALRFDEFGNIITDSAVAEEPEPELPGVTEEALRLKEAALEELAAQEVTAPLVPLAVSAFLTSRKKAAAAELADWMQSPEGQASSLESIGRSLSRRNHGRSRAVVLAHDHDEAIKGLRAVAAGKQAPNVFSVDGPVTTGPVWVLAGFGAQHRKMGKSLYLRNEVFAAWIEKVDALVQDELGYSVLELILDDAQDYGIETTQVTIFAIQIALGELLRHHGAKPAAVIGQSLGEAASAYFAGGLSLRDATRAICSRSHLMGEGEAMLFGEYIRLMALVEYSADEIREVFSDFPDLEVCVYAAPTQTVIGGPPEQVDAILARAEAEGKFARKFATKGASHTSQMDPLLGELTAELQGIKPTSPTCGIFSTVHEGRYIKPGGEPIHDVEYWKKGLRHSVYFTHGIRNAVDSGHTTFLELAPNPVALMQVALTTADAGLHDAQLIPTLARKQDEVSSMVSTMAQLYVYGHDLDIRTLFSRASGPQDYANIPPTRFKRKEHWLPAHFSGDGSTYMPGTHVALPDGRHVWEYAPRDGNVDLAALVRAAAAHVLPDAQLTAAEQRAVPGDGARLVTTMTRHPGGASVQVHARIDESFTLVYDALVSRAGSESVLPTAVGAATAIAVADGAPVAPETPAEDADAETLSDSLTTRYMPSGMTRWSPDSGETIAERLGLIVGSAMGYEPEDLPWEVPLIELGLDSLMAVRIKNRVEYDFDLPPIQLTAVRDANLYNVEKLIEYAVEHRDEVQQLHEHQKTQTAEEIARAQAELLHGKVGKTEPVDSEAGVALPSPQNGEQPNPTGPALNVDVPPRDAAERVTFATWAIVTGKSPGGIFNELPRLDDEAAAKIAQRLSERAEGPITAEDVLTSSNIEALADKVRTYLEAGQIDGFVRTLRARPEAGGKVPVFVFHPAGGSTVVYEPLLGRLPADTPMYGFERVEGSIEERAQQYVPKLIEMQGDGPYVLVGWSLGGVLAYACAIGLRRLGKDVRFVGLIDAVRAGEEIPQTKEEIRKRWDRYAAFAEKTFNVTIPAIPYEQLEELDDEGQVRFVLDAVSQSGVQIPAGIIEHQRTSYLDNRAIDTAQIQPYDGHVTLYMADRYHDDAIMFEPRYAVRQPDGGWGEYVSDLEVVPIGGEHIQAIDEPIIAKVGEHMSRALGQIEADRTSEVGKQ
UniProt Q8IDJ8, 1-583: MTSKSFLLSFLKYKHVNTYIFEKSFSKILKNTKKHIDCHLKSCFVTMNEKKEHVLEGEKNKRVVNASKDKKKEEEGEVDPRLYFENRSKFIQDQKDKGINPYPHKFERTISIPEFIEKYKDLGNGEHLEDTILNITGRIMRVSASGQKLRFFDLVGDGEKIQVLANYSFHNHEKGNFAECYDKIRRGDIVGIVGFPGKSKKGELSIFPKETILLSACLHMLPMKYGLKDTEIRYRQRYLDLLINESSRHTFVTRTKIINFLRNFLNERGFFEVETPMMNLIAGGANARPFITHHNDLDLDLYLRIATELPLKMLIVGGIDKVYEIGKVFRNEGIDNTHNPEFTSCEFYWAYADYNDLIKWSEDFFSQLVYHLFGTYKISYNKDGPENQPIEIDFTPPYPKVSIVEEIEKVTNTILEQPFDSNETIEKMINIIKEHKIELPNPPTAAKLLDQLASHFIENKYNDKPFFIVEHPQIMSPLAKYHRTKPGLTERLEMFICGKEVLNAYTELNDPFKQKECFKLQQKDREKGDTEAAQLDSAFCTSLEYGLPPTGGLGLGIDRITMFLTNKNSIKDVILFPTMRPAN
UniProt P9WNZ1, whole entry: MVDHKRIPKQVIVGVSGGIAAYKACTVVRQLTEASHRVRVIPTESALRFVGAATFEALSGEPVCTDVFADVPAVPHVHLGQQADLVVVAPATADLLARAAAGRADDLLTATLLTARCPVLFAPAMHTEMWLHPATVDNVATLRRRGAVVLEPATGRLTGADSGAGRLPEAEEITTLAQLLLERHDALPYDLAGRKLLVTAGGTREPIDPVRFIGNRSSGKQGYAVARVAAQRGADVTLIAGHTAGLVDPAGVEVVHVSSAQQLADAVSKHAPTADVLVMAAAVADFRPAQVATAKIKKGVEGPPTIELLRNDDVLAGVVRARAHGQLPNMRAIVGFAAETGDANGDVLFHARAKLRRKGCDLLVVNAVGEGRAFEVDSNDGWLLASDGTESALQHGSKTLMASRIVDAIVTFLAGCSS

Values are the deposited “Percent Effect”, in %. How 0% and 100% were set is not recorded. Most values in the screen are low, and negative values occur. The compounds are a random part of those screened. Two or more numbers in one place are separate tests of the same structure; such repeats can differ widely. A dash means the value is not listed here; it may have been measured.

A: 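Assay of Toxoplasma gondii numbers, read through their beta-galactosidase reporter with a colour substrate. Tested at 10 µM. The record gives no direction; the compounds picked for IC50 retests had high values, so higher reads as fewer parasites. Of about 67,000 compounds tested this way, about 260 (0.38%) reached 50% or more in at least one test.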
B: 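Polyketide synthase Pks13, Mycobacterium tuberculosis (UniProt I6X8D2). Enzyme assay of the thioesterase domain of polyketide synthase 13; the read-out is not stated. Compounds at 30 µM. The record gives no direction; the compounds picked for IC50 retests had high values, so higher reads as stronger inhibition. About 67,000 compounds were tested under these conditions; 0.46% (about 300) showed 50% or more at least once.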
C: 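Lysine-tRNA ligase, Plasmodium falciparum 3D7 (UniProt Q8IDJ8). Enzyme assay of the cytosolic lysyl-tRNA synthetase in 384-well plates, read by luminescence. Concentration: 30 µM. Higher reads as stronger inhibition, judged from the few compounds that gave an IC50. Of about 69,000 compounds tested this way, about 49 (0.071%) reached 50% or more in at least one test.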
D: 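Coenzyme A biosynthesis protein CoaBC, Mycobacterium tuberculosis (UniProt P9WNZ1). Enzyme assay of CoaBC with a phosphate dye (Biomol Green) read at 650 nm. Concentration: 30 µM. Direction is inferred from only a few compounds that gave an IC50; most scored high, so higher reads as stronger inhibition. Most strong results did not repeat in a second test. About 67,000 compounds were tested under these conditions; 0.06% (about 40) showed 50% or more at least once.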

compound	A	B	C	D
CN(C)C(=O)C1CN(Cc2ccc(C#N)cc2)c2ccccc2O1 (stereo not drawn)	0.3846	-42.48	8.145	-2.784
Cc1ccc(OCCCC(=O)NC(C)c2nnc3n2CCC3)cc1 (stereo not drawn)	-31.13	-9.916	0.4587	11.99
Cc1ccc(F)c(N2CCCC(Nc3nccn4cnnc34)C2=O)c1 (stereo not drawn)	12.02	1.806	-1.383	2.672
COc1c(C)cnc(CN(C)C(=O)c2ccccn2)c1C	2.316	-6.555	0.8558	-4.536
O=C(CCCc1ccccn1)N1CCSC2(CCCCC2)C1	-4.302	-16.75	0.5366	0.9828
Cc1nc(Nc2nccs2)cc(C2CCCN2)n1.Cl (stereo not drawn)	10.81	-	-	-
[H][C@]12CCC[C@@]1(CO)CN(C(=O)c1cc(C)nc3ccc(C)cc13)C2	-28.31	-	-	-
COc1cc2c(cc1CN1CCn3c(CO)nnc3C1)CCC2.O=C(O)CC(O)(CC(=O)O)C(=O)O	10.52	-	-	-
O=C(NC1CC1)C1CCN(Cn2nc(-c3ccccc3)oc2=O)CC1	-6.881	-8.626	1.379	10.35
CN1CC(=O)N(c2cnn(C)c2)CC12CCN(Cc1ccccc1)C2.O=C(O)C(F)(F)F.O=C(O)C(F)(F)F (stereo not drawn)	14.3	-	-	-
Cc1ccc(NC(=O)CN(C)C(=O)c2ccc(-n3cccc3)nc2)nc1	-8.028	-1.568	-1.741	-3.782
COc1ccc(C(=O)N(C)Cc2nnc3ccccn23)cc1	-1.949	-33.03	-4.01	1.305
CCNC(=O)[C@@H]1C[C@@H](N)CN1Cc1ccc(-c2ccccc2C#N)o1	-3.134	-42.35	5.906	0.2012
COc1ccc(-c2noc(Cn3cc(C)cn3)n2)c(OC)c1OC	6.206	-20.5	2.704	-1.24
O=C1CCC2(CCCN(C(=O)Cc3cccs3)C2)N1 (stereo not drawn)	-11.82	-31.65	6.332	5.089
CC(C)(C)NS(=O)(=O)c1ccccc1CNCc1ccccc1	16.57	-48.56	3.242	-
CC(Cn1ccnc1)NC(=O)NCc1ccccn1 (stereo not drawn)	-1.18	-34.46	0.6004	5.882
CC(C)(C)n1ccc(C(=O)N2CCCC(c3ccc(C(=O)O)cc3)C2)c1 (stereo not drawn)	-2.375	-14.7	0.4496	0.8464
COc1ccccc1N1CCC(NCc2c(C)noc2C)C1 (stereo not drawn)	-0.7491	-13.61	4.117	-8.402
CCC(C(=O)N(C)Cc1cc(-c2ccccc2)n[nH]1)n1cccn1 (stereo not drawn)	-4.956	-35.92	-0.82	3.883
Cn1cnc(S(=O)(=O)NCC2CCN(C(=O)Oc3ccccc3)CC2)c1	3.287	-2.333	3.22	-4.141
Cc1nccn1-c1cccc(C2CCCN2)n1 (stereo not drawn)	-	6.37	1.302	8.763 & 32.52
CC(C)CN(C)Cc1c[nH]nc1-c1ccc(F)cc1F	-10.15	-14.28	3.183	0.7444
O=C(O)C(F)(F)F.[H][C@@]12CCCO[C@]1([H])[C@H](N(C)C)CN2C(=O)Cc1ccsc1	-5.419	-	-	-
Cc1nc(CN2C(=O)CCC23CCN(Cc2ccccn2)CC3)cs1.O=C(O)C(F)(F)F.O=C(O)C(F)(F)F	2.632	-	-	-
O=C(Cc1cn2ccsc2n1)N(Cc1ccco1)CC1CCCO1 (stereo not drawn)	3.683	-7.97	-4.352	-4.348
CC[C@@H](CO)NC(=O)c1coc(COc2ccc3sc(C)nc3c2)n1	-4.136	-6.905	-3.223	0.6031
CNS(=O)(=O)c1ccc(CNC(=O)Nc2ccccn2)s1	1.89	-7.925	4.24	3.481
NC(=O)C1CCCCN1C(=O)c1ccc(Br)s1 (stereo not drawn)	13.69	-10.04	6.053	9.369
COC(=O)C(c1cc(F)ccc1F)N(C)C(=O)c1cccnc1O (stereo not drawn)	-2.418	-7.023	3.581	3.394
Cc1cnn(CC2CCCN2Cc2cc(C)on2)c1 (stereo not drawn)	4.272	-11.03	0.05337	0.7673
O=S(=O)(CC1CCCO1)Nc1cc(Cl)ccc1-n1cccn1 (stereo not drawn)	11.02	-	13.01	6.226
[H][C@]12CCN(C(=O)CN(C)C)C[C@@]1([H])OCCN(Cc1csc(C)n1)C2	3.746	-	-	-
CN(C)CC1CN(Cc2ccc3c(c2)OCO3)Cc2nccn2C1.O=C(O)C(F)(F)F.O=C(O)C(F)(F)F (stereo not drawn)	-13.86	-	-	-
COc1ccc(NC(=O)c2nc3ccccc3n(C)c2=O)cc1OC	13.97	-1.273	3.547	2.046
Cc1cc(CN2CCCC2c2c(C)nn(C)c2Cl)no1 (stereo not drawn)	-8.726	-11.38	-0.5745	1.169
CN(Cc1ccccc1Br)C(=O)Cn1nc(-c2ccc(F)cc2)oc1=O	-3.771	27.19	11.22	1.484
CCCNC(=O)c1cc(Br)cc(S(=O)(=O)N2CCOCC2)c1F	4.59	-40.5	4.712	-
CNC(=O)C1(C)CN(S(=O)(=O)c2cccc(OC)c2)CCO1 (stereo not drawn)	1.11	-12.68	-1.837	-7.022
Cc1nc(C(NS(=O)(=O)N(C)C)c2ccccc2F)no1 (stereo not drawn)	0.8102	-14.13	1.386	3.313
CC(C)OCCOCc1cccc(NC(=O)NCC(=O)N(C)C)c1	-1.311	-8.7	0.2572	-1.096
[H][C@@]12CCC(=O)N(CCNC)[C@]1([H])CCN(c1cnc3ccccc3n1)C2	-5.798	-	-	-
CC(C)c1nnc(NC(=O)NCc2ccc(CO)c(F)c2)s1	6.58	-21.02	1.766	6.789
Cc1ccsc1C(=O)N1CC[C@@H](N(C)C)[C@@H]1Cc1cnn(C)c1.O=C(O)C(F)(F)F	-17.7	-	-	-
O=C(c1cnc2ccc(F)cc2c1NCc1ccco1)N1CCCCC1	-6.989	30.42	0.5077	3.302
Cc1ccccc1C(=O)NCC(O)c1ccc(F)c(F)c1 (stereo not drawn)	-6.874	13.72	0.8331	-2.927
[H][C@@]12COC[C@]1(COC)CN(C(=O)C1CC(F)(F)C1)C2	-6.874	-	-	-
O=C(C1CCOC1)N1C[C@H]2CN(Cc3cccnc3)C(=O)[C@H]2C1 (stereo partly drawn)	-	-21.25	-0.7083	6.807
Cc1ccc(N2CC[C@@H]3[C@@H]2CCN3C(=O)Cc2cccs2)nn1	-	2.697	2.953	0.2475
[H][C@@]12COC[C@]1(COC)CN(S(=O)(=O)c1cccnc1)C2	4.283	-	-	-

5 of the entries, repeated:

For CC(Cn1ccnc1)NC(=O)NCc1ccccn1 (stereo not drawn) the result was A: -1.18%; B: -34.46%; C: 0.6004%; D: 5.882%.
For O=C(c1cnc2ccc(F)cc2c1NCc1ccco1)N1CCCCC1 the result was A: -6.989%; B: 30.42%; C: 0.5077%; D: 3.302%.
For O=C(NC1CC1)C1CCN(Cn2nc(-c3ccccc3)oc2=O)CC1 the result was A: -6.881%; B: -8.626%; C: 1.379%; D: 10.35%.
For Cc1ccc(OCCCC(=O)NC(C)c2nnc3n2CCC3)cc1 (stereo not drawn) the result was A: -31.13%; B: -9.916%; C: 0.4587%; D: 11.99%.
For [H][C@]12CCN(C(=O)CN(C)C)C[C@@]1([H])OCCN(Cc1csc(C)n1)C2 the result was A: 3.746%.